Laboratory results: PubChem BioAssay AID1671190 (National Center for Advancing Translational Sciences (NCATS), 2021)
Hit rate of the full screen: of about 580,000 compounds, about 6,100 (1.1%) were called active. Inconclusive results, whose numbers are uncertain, are shown with a selection of clear calls. Calls follow the shape of the dose curve; as a rule, active = well fitted inhibition curve with a large enough effect; inconclusive = small, poorly fitted or top-dose-only effect, or another doubt; inactive = no such curve, though single readings can be large or run the other way. A potency beside an inconclusive call is a rough fit, not a confirmed value.

Amino acid sequences for entries named in this document (tags omitted). A change or cut given only in a name is not applied to a line headed by its entry.
UniProt P18054: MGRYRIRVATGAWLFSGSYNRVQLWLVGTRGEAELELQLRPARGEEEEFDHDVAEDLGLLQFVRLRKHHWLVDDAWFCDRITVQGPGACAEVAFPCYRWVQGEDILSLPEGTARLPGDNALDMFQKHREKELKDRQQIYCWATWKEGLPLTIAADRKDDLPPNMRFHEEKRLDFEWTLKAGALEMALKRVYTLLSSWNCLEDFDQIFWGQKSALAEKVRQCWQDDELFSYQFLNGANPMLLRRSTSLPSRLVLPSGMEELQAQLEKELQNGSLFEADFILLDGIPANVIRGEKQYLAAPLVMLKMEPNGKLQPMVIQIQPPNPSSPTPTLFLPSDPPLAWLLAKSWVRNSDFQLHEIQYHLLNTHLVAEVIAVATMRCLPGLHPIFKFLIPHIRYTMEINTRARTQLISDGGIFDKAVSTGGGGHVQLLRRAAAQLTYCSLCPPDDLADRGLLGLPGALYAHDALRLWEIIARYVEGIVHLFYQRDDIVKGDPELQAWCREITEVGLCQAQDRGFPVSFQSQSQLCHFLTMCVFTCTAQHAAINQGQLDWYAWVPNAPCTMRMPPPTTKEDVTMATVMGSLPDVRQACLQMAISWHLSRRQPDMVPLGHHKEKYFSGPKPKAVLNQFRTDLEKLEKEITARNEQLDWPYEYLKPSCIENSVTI

target: Polyunsaturated fatty acid lipoxygenase ALOX12 (Homo sapiens) (UniProt P18054); assay: Primary qHTS assay for inhibitors of human arachidonate 12S-lipoxygenase (ALOX12): Round 2; conditions: purified 12hLO, xylenol orange hydroperoxide absorbance; activity change, negative = inhibition: at 108 µM (top of the series) unless noted
Summary of the method: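 Hydroperoxide product was detected by ferrous iron/xylenol orange as the 573 to 405 nm absorbance ratio. Arachidonic acid at 40 uM (final) was turned over for 30 min at room temperature by 150 nM human 12hLO, pH 7.0 Hepes buffer, after 15 min compound preincubation.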
% is scaled to controls: 0 for no effect and ±100 for the full control effect; potency is read from the fitted curve at half-maximal effect.

Structure (SMILES) | Potency | activity change, negative = inhibition
O=C(NNc1nc2ccc(Cl)cc2s1)c1cc(-c2cccs2)nc2ccccc12 | inconclusive: 50.1 µM [inhibitor, partial curve, poor fit] | –
COc1ccc(N)c2c1C(=O)c1ccccc1C2=O | – | inactive: 11.1%
c1ccc(-c2cc(CC3(NCC4CCCCC4)COC3)no2)cc1 | – | inactive: 20.5% [at 176 µM]
CSc1ccc(CN2C(=O)C(C)Oc3c(C(C)=O)cccc32)cc1 (stereo unspecified) | – | inactive: 1.37%
O=C1CCCC(O)=C1N=Nc1cccc(C(=O)O)c1 | inconclusive: 50.1 µM [inhibitor, partial curve, poor fit] | –
CC1CCc2sc3ncn4nc(C(=O)NCc5ccco5)nc4c3c2C1 (stereo unspecified) | – | inactive: -7.09%
COc1cccc(/C=C2\Oc3cc(OS(=O)(=O)c4ccccc4)ccc3C2=O)c1 | inconclusive: 25.1 µM [inhibitor, partial curve, poor fit] | –
CCN(CC)CCSc1nc2ccc(OC)cc2[nH]1 | inconclusive: 35.5 µM [inhibitor, partial curve, poor fit] | –
NC(=O)c1ccc(N=C2C(=O)Nc3ccc([N+](=O)[O-])cc32)cc1 | – | inactive: -20.2%
CCOC(=O)C1CCCCN1C(=O)c1ccc(-n2cc(NC(=O)c3cccnc3)cn2)cc1 (stereo unspecified) | inconclusive: 89.1 µM [inhibitor, single point] | –
Cc1sc(NC(=O)CC(C)(C)C)c(C#N)c1C | active: 12.6 µM | –
CN1CCC[C@H]1CCO[C@](C)(c1ccccc1)c1ccc(Cl)cc1 | inconclusive: 1.53 µM [inhibitor, full curve] | –
CC(C)(C)NC(=O)CC(c1ccccc1)c1ccccc1O (stereo unspecified) | inconclusive: 7.08 µM [inhibitor, full curve, poor fit] | –
Cc1cccc(C(=O)NCC(=O)OCC(=O)c2ccc(C)s2)c1 | inconclusive: 50.1 µM [inhibitor, partial curve, poor fit] | –
COc1ccc2c(=O)c(Oc3ccccc3OC)c(C)oc2c1 | inconclusive: 35.5 µM [inhibitor, partial curve, poor fit] | –
C/C(=N\Nc1ccc(C(=O)O)cc1)c1ccc2c(c1)Nc1ccccc1S2 | inconclusive: 3.16 µM [inhibitor, full curve, poor fit] | –
CNc1c(NC(=O)c2ccc(Cl)cc2)c(=O)oc2ccccc12 | – | inactive: 59.2%
Cc1nc(C(F)(F)F)ccc1C(=O)N1CCC1(C)C(=O)NS(=O)(=O)c1ccc(C#N)cc1 (stereo unspecified) | inconclusive: 89.1 µM [inhibitor, single point] | –
OCCNc1ncnc2c1cnn2Cc1ccccc1 | – | inactive: 13.3%
CCOC(=O)[C@@H]1[C@H]2COc3ccccc3[C@@H]2N2C(=O)N(c3cccc(Cl)c3)C(=O)[C@]12C | inconclusive: 25.1 µM [inhibitor, partial curve, poor fit] | –
O=C(N/N=C1/CC2C=CCC12)c1ccc(Cl)cc1 (stereo unspecified) | – | inactive: 4.41%
CC1(C)Oc2ccc3ccc(=O)oc3c2-c2cnoc21 | inconclusive: 31.6 µM [inhibitor, partial curve, poor fit] | –
Cn1c(O)c(N=NC(=O)C2COc3ccccc3O2)c2ccccc21 (stereo unspecified) | – | inactive: 6.08%
C=CCn1c(N(C)Cc2ccccc2)nc2c1c(=O)[nH]c(=O)n2C | inconclusive: 50.1 µM [inhibitor, partial curve, poor fit] | –

Reprinted at random: 4 entries already listed.
Structure (SMILES) | Potency | activity change, negative = inhibition
C/C(=N\Nc1ccc(C(=O)O)cc1)c1ccc2c(c1)Nc1ccccc1S2 | inconclusive: 3.16 µM [inhibitor, full curve, poor fit] | –
CCOC(=O)C1CCCCN1C(=O)c1ccc(-n2cc(NC(=O)c3cccnc3)cn2)cc1 (stereo unspecified) | inconclusive: 89.1 µM [inhibitor, single point] | –
COc1ccc(N)c2c1C(=O)c1ccccc1C2=O | – | inactive: 11.1%
O=C(N/N=C1/CC2C=CCC12)c1ccc(Cl)cc1 (stereo unspecified) | – | inactive: 4.41%

(next part)

Structure (SMILES) | Potency | activity change, negative = inhibition
N#Cc1c(SCC(=O)N2CCCC2)nc(N2CCCCC2)c2c1CCCC2 | inconclusive: 44.7 µM [inhibitor, partial curve, poor fit] | –
CCc1c(CSC(=N)N)csc1C | inconclusive: 56.2 µM [inhibitor, partial curve, poor fit] | –
Cc1ccccc1C(=O)Nc1nnc(S(=O)(=O)N(C)Cc2ccco2)s1 | – | inactive: 0%
COc1ccc(CC(C)N2CCN(Cc3ccccc3)CC2)c(OC)c1 (stereo unspecified) | inconclusive: 12.6 µM [inhibitor, full curve] | –
O=C(NN1C(=O)/C(=C/C=C/c2ccco2)SC1=S)c1ccccc1O | active: 12.6 µM | –
Cc1ccc(-c2cc(N3CCC(CNC(=O)c4ccc(=O)[nH]c4)CC3)n[nH]2)cc1 | – | inactive: 14.6%
COC(=O)C1=C(CS(=O)(=O)c2ccc(Cl)cc2)NC(=O)NC1c1ccc(O)cc1 (stereo unspecified) | inconclusive: 50.1 µM [inhibitor, partial curve, poor fit] | –
O=C(O)C1CCN(C(=O)Cn2ccc3c(Cl)cccc32)CC1 | – | inactive: -25.9%
Cc1noc(C)c1CSCC(=O)OCc1nc2ccccc2c(=O)n1CC#N | – | inactive: -14.3%
CC(C)(C)c1cc(O)cc(C(C)(C)C)c1 | inconclusive: 7.08 µM [inhibitor, full curve] | –
COCCn1c(C)cc(C(=O)CN2C(=O)NC3(CCCCCC3)C2=O)c1C | inconclusive: 112 µM [inhibitor, single point] | –
Cc1c(CC(=O)N[C@@H](CCCNC(N)=O)C(=O)O)c(=O)oc2cc3oc4c(c3cc12)CCCC4 | – | inactive: -4.63%
CCN1CCN(C(=O)c2cc(S(=O)(=O)Nc3ccc(S(C)(=O)=O)cc3)ccc2Cl)CC1 | inconclusive: 39.8 µM [inhibitor, partial curve, poor fit] | –
O=C1CC2(CCN(C(=O)c3ccccn3)CC2)Oc2cc(Cl)ccc21 | inconclusive: 20 µM [inhibitor, full curve] | –
COc1cc2sc3cc(NCc4ccc(C)o4)ccc3c(=O)c2cc1OC | inconclusive: 35.5 µM [inhibitor, partial curve, poor fit] | –
CCCCN(CC)Cc1ccc(CNC(=S)Nc2c(C)cc(C)cc2C)o1 | inconclusive: 112 µM [inhibitor, single point] | –
CCN(Cc1ccccc1)C(=O)c1nn(-c2ccc(OC)cc2)c(=O)c2c1c1ccccc1n2C | inactive | –
c1ccc(-n2cnc3cc(NCc4ccccn4)ccc32)cc1 | inconclusive: 2 µM [inhibitor, full curve, poor fit] | –
O=C(COC(=O)c1ccc(O)cc1O)N=c1sccn1Cc1ccccc1Cl | – | inactive: -15.9%
Cc1ccc(CC(=O)NC2CCC(C)CC2)cc1C (stereo unspecified) | inconclusive: 31.6 µM [inhibitor, single point] | –
CCCCN(Cc1ccccc1)c1ccc(C(=O)O)cc1NS(=O)(=O)c1ccc(C(C)=O)cc1 | active: 5.62 µM | –
CCCCC1CCC(C(=O)N(CC(C)C)c2c(N)n(CCCC)c(=O)[nH]c2=O)CC1 (stereo unspecified) | inconclusive: 50.1 µM [inhibitor, partial curve, poor fit] | –
COc1cccc(CN2CCCC(C(=O)Nc3ccc(-c4cscn4)cc3)C2)c1 (stereo unspecified) | – | inactive: 224%
COc1cc(NC(=O)Nc2ccccc2OCc2cc(=O)n3cccc(C)c3n2)cc(OC)c1 | – | inactive: -0.397%

Structure (SMILES) | Potency | activity change, negative = inhibition
N#Cc1cccc(CN2C3CCC2CN(C(=O)c2ccncc2)C3)c1 | – | inconclusive: -33.4% [inhibitor]
Cn1cccc1CN1CC2(C1)C(=O)Nc1ccccc12 | – | inactive: 2.82% [at 12.5 µM]
C=CCCCCCCCCC(=O)Nc1ncccn1 | – | inactive: 2.31%
COc1ccc(C(CNC(=O)CN(C)S(=O)(=O)c2ccc(C)cc2)N2CCCC2)cc1 (stereo unspecified) | inconclusive: 50.1 µM [inhibitor, partial curve, poor fit] | –
CC(CCN1CCN(c2ccccn2)CC1)c1ccccc1 (stereo unspecified) | inconclusive: 3.16 µM [inhibitor, full curve] | –
C[n+]1c(/C=C/c2ccc3c(c2)OCO3)ccc2ccccc21 | – | inactive: 36.3%
CCOC(=O)N1CCN(CC(O)COc2ccccc2C(C)C)CC1 (stereo unspecified) | inconclusive: 100 µM [inhibitor, single point] | –
Cc1ccc(C(=O)C(OC(=O)c2ccco2)c2ccccc2)cc1C (stereo unspecified) | – | inactive: -14%
Cn1c(SCc2csc(-c3ccc(Cl)cc3)n2)nnc1C1CC1 | inconclusive: 44.7 µM [inhibitor, single point] | –
COc1cc(C(c2c(C)[nH][nH]c2=O)c2c(C)[nH][nH]c2=O)cc(Cl)c1O | inconclusive: 28.2 µM [inhibitor, partial curve, poor fit] | –
CC(=O)c1cccc(-c2ccnc3c2CC(C(=O)NCC2CC2)O3)c1 (stereo unspecified) | inconclusive: 126 µM [inhibitor, partial curve, poor fit] | –
COc1ccc(S(=O)(=O)N(Cc2cccnc2)Cc2cc3ccccc3[nH]c2=O)cc1 | – | inactive: 1.4%
COc1cc(F)cc(-c2cccc(CCOc3cnc4c(ccn4CC(=O)O)c3)c2)c1 | inconclusive: 39.8 µM [inhibitor, partial curve] | –
CCCC(=O)Nc1nc(C)c(C(C)=O)s1 | inconclusive: 0.199 µM [inhibitor, full curve, poor fit] | –
CCOc1cc2cc(C(=O)c3ccccc3O)cnc2cc1OCC | inconclusive: 44.7 µM [inhibitor, partial curve, poor fit] | –
O=C(NCc1ccccc1)C1CCN(C(=O)N2CC3CC(C2)[C@H]2CCCC(=O)N2C3)CC1 (stereo partly specified) | – | inactive: 46.7%
CCN(CC(=O)Nc1ccc(NC(C)=O)cc1)C(=O)c1ccc2c(c1)S(=O)(=O)N=C1CCCCCN12 | inconclusive: 50.1 µM [inhibitor, single point] | –
O=C(CCN1CCOCC1)Nc1cc(C(=O)Nc2ccc(Cl)cc2)ccc1N1CC2CC(C1)c1cccc(=O)n1C2 (stereo unspecified) | – | inactive: 21.4%
COCCNC(=O)CN(c1ccc(C)cc1)S(=O)(=O)c1ccc(SC)cc1 | inconclusive: 20 µM [inhibitor, partial curve, poor fit] | –
CC(C)(C)c1[nH]c2ccc(F)cc2c1C=O | – | inactive: 8.85%
O=S1(=O)CC/C(=N\Nc2ccc(F)cc2)c2ccsc21 | active: 31.6 µM | –
CCOC(=O)c1ccc(N=c2sc(C(=O)OC)cc(=O)n2Cc2ccco2)cc1 | – | inactive: 30.5%
O=C(O)c1cccc(Nc2nc3ccccc3nc2NS(=O)(=O)c2ccc(F)cc2)c1 | inconclusive: 31.6 µM [inhibitor, single point] | –
